Residue numbers refer to the chain shown, from its start. Numbers in names are those of the source.
Columns and labels:
cy5-labeled ssDNA = experiment: Microscale thermophoresis (MST) DNA binding, ssDNA
Description: (§1) A total of 12 concentrations of ligand proteins (e.g., EYA (1-365)) were serially diluted by 1:1 using MST buffer from 5 uM to 2.4 nM, 10 ul of each dose of ligand protein was mixed with 10 ul of cy5-labeled dsDNA/ssDNA supernatant. The mixture of EYA and DNA was loaded into premium capillaries for MST assay with parameters set up at auto-detected excitation power and medium MST power. Binding affinity was analyzed by MO. Affinity Analysis software (version 2.1.3, NanoTemper Technologies) using the signal from an MST-on time of 20 s. Three individual experiments were merged to generate standard deviation.
(§2) Cy5-labeled oligo P1 (T. T. Paull Curr Opin Genet Dev 71, 55-62 (2021)). from IDT ([…]-[…]; SEQ ID NO:1) was used as the ssDNA substrate. dsDNA was generated by annealing Cy5-labeled oligo P1 with its exact complement P2 […]-AAATAAGTAAAAG […] (SEQ ID NO:2). The annealed product was purified by SDS-PAGE then concentrated and quantified. For the long system assays, substrates were sourced from NEB. The ssDNA is the ϕX174 virion DNA and the dsDNA its replicative form ϕX174 RF I DNA.

cy5-labeled dsDNA = experiment: Microscale thermophoresis (MST) DNA binding, dsDNA
Description: as §1, §2

[1] = RAD51 proteins binding ssDNA, Table 5
[2] = EYA4 constructs binding ssDNA, Table 4
[3] = EYA4 constructs binding dsDNA, Table 4

B1: YF, YF: double-mutant RAD51 (Y54F, Y315F) that cannot be phosphorylated (protein, UniProt Q06609 2-339, looked up, variant Y54F Y315F)
DNA repair protein RAD51 …: AMQMQLEANADTSVEEESFGPQPISRLEQCGINANDVKKLEEAGFHTVEAVAFAPKKELINIKGISEAKADKILAEAAKLVPMGFTTATEFHQRRSEIIQITTGSKELDKLLQGGIETGSITEMFGEFRTGKTQICHTLAVTCQLPIDRGGGEGKAMYIDTEGTFRPERLLAVAERYGLSGSDVLDNVAYARAFNTDHQTQLLYQASAMMVESRYALLIVDSATALYRTDYSGRGELSARQMHLARFLRMLLRLADEFGVAVVITNQVVAQVDGAAMFAADPKKPIGGNIIAHASTTRLYLRKGRGETRICKIFDSPCLPEAEAMFAINADGVGDAKD
With B1 the “Hill Coeff.” value (cy5-labeled ssDNA; [1]) was 3.312 and the “Hill Coeff.” value (cy5-labeled dsDNA; RAD51 proteins binding dsDNA) was 7.07.

B2: 1-365: N-terminally m-cherry-tagged EYA4 (aa 1-365), purified (protein, UniProt O95677 1-365, looked up, fragment)
chain: MEDSQDLNEQSVKKTCTESDVSQSQNSRSMEMQDLASPHTLVGGGDTPGSSKLEKSNLSSTSVTTNGTGGENMTVLNTADWLLSCNTPSSATMSLLAVKTEPLNSSETTATTGDGALDTFTGSVITSSGYSPRSAHQYSPQLYPSKPYPHILSTPAAQTMSAYAGQTQYSGMQQPAVYTAYSQTGQPYSLPTYDLGVMLPAIKTESGLSQTQSPLQSGCLSYSPGFSTPQPGQTPYSYQMPGSSFAPSSTIYANNSVSNSTNFSGSQQDYPSYTAFGQNQYAQYYSASTYGAYMTSNNTADGTPSSTSTYQLQESLPGLTNQPGEFDTMQSPSTPIKDLDERTCRSSGSKSRGRGRKNNPSPPPD
modifications: N-terminal mCherry tag
notes: N-terminally m-cherry-tagged EYA4 (aa 1-365), purified
In the case of B2, the “Hill Coeff.” value (cy5-labeled ssDNA; [2]) is reported as 1.6539 and the “Hill Coeff.” value (cy5-labeled dsDNA; [3]) is reported as 1.6489.

B3: SQTQ: phosphomimetic EYA4 double mutant in the ATM-ATR consensus site SQTQ (S209D, T211D) (protein, UniProt O95677 1-639, looked up, variant S209D T211D)
Protein phosphatase EYA4: MEDSQDLNEQSVKKTCTESDVSQSQNSRSMEMQDLASPHTLVGGGDTPGSSKLEKSNLSSTSVTTNGTGGENMTVLNTADWLLSCNTPSSATMSLLAVKTEPLNSSETTATTGDGALDTFTGSVITSSGYSPRSAHQYSPQLYPSKPYPHILSTPAAQTMSAYAGQTQYSGMQQPAVYTAYSQTGQPYSLPTYDLGVMLPAIKTESGLDQDQSPLQSGCLSYSPGFSTPQPGQTPYSYQMPGSSFAPSSTIYANNSVSNSTNFSGSQQDYPSYTAFGQNQYAQYYSASTYGAYMTSNNTADGTPSSTSTYQLQESLPGLTNQPGEFDTMQSPSTPIKDLDERTCRSSGSKSRGRGRKNNPSPPPDSDLERVFVWDLDETIIVFHSLLTGSYAQKYGKDPPMAVTLGLRMEEMIFNLADTHLFFNDLEECDQVHIDDVSSDDNGQDLSTYSFATDGFHAAASSANLCLPTGVRGGVDWMRKLAFRYRRVKELYNTYKNNVGGLLGPAKRDAWLQLRAEIEGLTDSWLTNALKSLSIISTRSNCINVLVTTTQLIPALAKVLLYSLGGAFPIENIYSATKIGKESCFERIMQRFGRKVVYVVIGDGVEEEQAAKKHNMPFWRISSHSDLLALHQALELEYL
For B3, the “Hill Coeff.” value (cy5-labeled ssDNA; [2]) was 2.662 and the “Hill Coeff.” value (cy5-labeled dsDNA; [3]) was 2.6104.

B4: WT: purified wild type RAD51 (protein, UniProt Q06609 2-339, looked up)
DNA repair protein RAD51 …: B1 DNA repair protein RAD51 … with F53Y, F314Y
B4 was tested, and the “Hill Coeff.” value (cy5-labeled ssDNA; [1]) was 2.662 and the “Hill Coeff.” value (cy5-labeled dsDNA; RAD51 proteins binding dsDNA) was 2.2959.

B5: YD, YD: double phospho-mimetic RAD51 (Y54D, Y315D) (protein, UniProt Q06609 2-339, looked up, variant Y54D Y315D)
DNA repair protein RAD51 …: B1 DNA repair protein RAD51 … with F53D, F314D
For B5, the “Hill Coeff.” value (cy5-labeled dsDNA; RAD51 proteins binding dsDNA) was 2.6695.
